{"source": "paper PMC2927601", "binders": {"B1": {"name": "annexin A7, endogenous protein (protein, UniProt P20073 1-488)", "chain": "MSYPGYPPTGYPPFPGYPPAGQESSFPPSGQYPYPSGFPPMGGGAYPQVPSSGYPGAGGYPAPGGYPAPGGYPGAPQPGGAPSYPGVPPGQGFGVPPGGAGFSGYPQPPSQSYGGGPAQVPLPGGFPGGQMPSQYPGGQPTYPSQINTDSFSSYPVFSPVSLDYSSEPATVTQVTQGTIRPAANFDAIRDAEILRKAMKGFGTDEQAIVDVVANRSNDQRQKIKAAFKTSYGKDLIKDLKSELSGNMEELILALFMPPTYYDAWSLRKAMQGAGTQERVLIEILCTRTNQEIREIVRCYQSEFGRDLEKDIRSDTSGHFERLLVSMCQGNRDENQSINHQMAQEDAQRLYQAGEGRLGTDESCFNMILATRSFPQLRATMEAYSRMANRDLLSSVSREFSGYVESGLKTILQCALNRPAFFAERLYYAMKGAGTDDSTLVRIVVTRSEIDLVQIKQMFAQMYQKTLGTMIAGDTSGDYRRLLLAIVGQ"}}, "molecular_target": "GST-ALG-2^ΔGF122 (human)", "assay": "pull-down; GST-fused ALG-2 proteins on glutathione Sepharose beads, cleared lysates of HEK293 cells; pulldown products analysed by Western blotting with specific antibodies; as described previously [40]; only the target purified", "note": "These are yes or no findings as the source states them, for the method shown. In cells and extracts the contact can be indirect."}
{"binder": "B1", "values": [{"measurement": "binding", "value": "no binding"}]}
